One data set relates to biotinyl-Ile-oxazolone. Nature of the data set: self-aminoacylation, catalytic enhancement (BIO) (fold over background); higher = more active; k-Seq, kA / k0A0; sequences stand for … in GGGAAUGGAUCCACAUCUACGAAUUC…UUCACUGCAGACUUGACGAAGCUG
The procedure, abridged:
(§1)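 Catalytic enhancement equals the median kA over the uncatalyzed rate, the latter read from the low-activity peak of a bimodal Gaussian fit. Values of kA came from fitting each sequence's fraction reacted to a pseudo-first-order model, with 1000 bootstraps. Reacted RNA was captured with streptavidin and quantified by triplicate qPCR and Illumina sequencing after 90 minutes at room temperature with 2–1250 μM biotinyl-aminoacyl-oxazolone and 0.43 μM mutagenized RNA pools bearing a 21-nt variable region.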

The subject of the next data set is biotinyl-Phe-oxazolone. Put plainly: self-aminoacylation, catalytic enhancement (BFO) (fold over background); higher = more active; k-Seq, kA / k0A0; sequences stand for … in GGGAAUGGAUCCACAUCUACGAAUUC…UUCACUGCAGACUUGACGAAGCUG
Put shortly:
as §1

A further data set concerns biotinyl-Met-oxazolone. Put plainly: self-aminoacylation, catalytic enhancement (BMO) (fold over background); higher = more active; k-Seq, kA / k0A0; sequences stand for … in GGGAAUGGAUCCACAUCUACGAAUUC…UUCACUGCAGACUUGACGAAGCUG
Put shortly: as §1

A further data set relates to biotinyl-Leu-oxazolone. Nature of the data set: self-aminoacylation, catalytic enhancement (BLO) (fold over background); higher = more active; k-Seq, kA / k0A0; sequences stand for … in GGGAAUGGAUCCACAUCUACGAAUUC…UUCACUGCAGACUUGACGAAGCUG
The procedure, abridged: as §1

Another data set relates to biotinyl-Trp-oxazolone. Nature of the data set: self-aminoacylation, catalytic enhancement (BWO) (fold over background); higher = more active; k-Seq, kA / k0A0; sequences stand for … in GGGAAUGGAUCCACAUCUACGAAUUC…UUCACUGCAGACUUGACGAAGCUG
Put shortly: as §1

In a further data set the test system is biotinyl-Val-oxazolone. Put plainly: self-aminoacylation, catalytic enhancement (BVO) (fold over background); higher = more active; k-Seq, kA / k0A0; sequences stand for … in GGGAAUGGAUCCACAUCUACGAAUUC…UUCACUGCAGACUUGACGAAGCUG
Put shortly: as §1

This sample is rich in variants without activity.

Consider “AUUACCGUGGUCAUCGAGUUA [Fam2.1 aminoacylation ribozyme variant]”, for which the self-aminoacylation was found to be 1.09 in the data set with biotinyl-Ile-oxazolone; 0.524 in the data set on biotinyl-Phe-oxazolone; 0.946 with biotinyl-Met-oxazolone; 0.897 with biotinyl-Leu-oxazolone; 0.691 in the data set on biotinyl-Trp-oxazolone; 1.02 in the data set with biotinyl-Val-oxazolone.

For the sequence “AGGGUUGCUAAUAGUCGCAAG [Fam3.1 aminoacylation ribozyme variant]”, the self-aminoacylation came to 1.58 in the data set on biotinyl-Ile-oxazolone; 4.28 in the data set on biotinyl-Phe-oxazolone; 2.18 in the data set on biotinyl-Met-oxazolone; 1.81 in the data set on biotinyl-Leu-oxazolone; 1.6 in the data set on biotinyl-Trp-oxazolone; 1.7 in the data set with biotinyl-Val-oxazolone.

“AAGUAUGCUAAUACUCGCAAG [Fam3.1 aminoacylation ribozyme variant]”: the self-aminoacylation worked out at 1.1 in the data set on biotinyl-Ile-oxazolone; 1.04 in the data set on biotinyl-Phe-oxazolone; 1.32 in the data set with biotinyl-Met-oxazolone; 1.09 with biotinyl-Leu-oxazolone; 1.35 with biotinyl-Trp-oxazolone; 1.12 in the data set on biotinyl-Val-oxazolone.

On to “CCACACCUCAGGCAAUCGGUC [Fam1B.1 aminoacylation ribozyme variant]”, for which the self-aminoacylation was 1.74 in the data set with biotinyl-Ile-oxazolone; 1.13 in the data set with biotinyl-Phe-oxazolone; 1.08 in the data set on biotinyl-Met-oxazolone; 1.65 in the data set on biotinyl-Leu-oxazolone; 1.39 in the data set with biotinyl-Trp-oxazolone; 1.96 in the data set with biotinyl-Val-oxazolone.

On to “CGACACUUCAAGCAAUCCGUC [Fam1B.1 aminoacylation ribozyme variant]”, for which the self-aminoacylation came to 1.37 in the data set with biotinyl-Ile-oxazolone; 0.897 in the data set with biotinyl-Phe-oxazolone; 1.27 in the data set with biotinyl-Met-oxazolone; 0.97 with biotinyl-Leu-oxazolone; 0.928 in the data set with biotinyl-Trp-oxazolone; 1.2 with biotinyl-Val-oxazolone.

“CCAAGCUUCAAGCAAUCGGUC [Fam1B.1 aminoacylation ribozyme variant]”: the self-aminoacylation in the data set on biotinyl-Ile-oxazolone worked out at 1.35; in the data set on biotinyl-Phe-oxazolone, 86.5; in the data set on biotinyl-Met-oxazolone, 1.51; with biotinyl-Leu-oxazolone, 2.5; with biotinyl-Trp-oxazolone, 44.9; in the data set on biotinyl-Val-oxazolone, 1.3.

Take “CUACUUUAAACAAUCGGUAUG [Fam1A.1 aminoacylation ribozyme variant]”: the self-aminoacylation with biotinyl-Ile-oxazolone stood at 0.692; in the data set with biotinyl-Phe-oxazolone, 0.659; in the data set on biotinyl-Met-oxazolone, 0.887; in the data set on biotinyl-Leu-oxazolone it was 0.595; in the data set on biotinyl-Trp-oxazolone, 0.463; with biotinyl-Val-oxazolone, 0.558.

As for “CUACUUCUAACAAUCGGUUUG [Fam1A.1 aminoacylation ribozyme variant]”, the self-aminoacylation with biotinyl-Ile-oxazolone turned out to be 0.513; with biotinyl-Phe-oxazolone, 0.679; in the data set with biotinyl-Met-oxazolone, 0.564; in the data set with biotinyl-Leu-oxazolone, 0.469; in the data set on biotinyl-Trp-oxazolone, 0.466; in the data set on biotinyl-Val-oxazolone, 0.598.

Take “CUACUUAAAGCAAUCGGUCUG [Fam1A.1 aminoacylation ribozyme variant]”: the self-aminoacylation in the data set on biotinyl-Ile-oxazolone came to 0.731; in the data set with biotinyl-Phe-oxazolone, 0.475; with biotinyl-Met-oxazolone, 0.685; in the data set on biotinyl-Leu-oxazolone, 0.719; in the data set with biotinyl-Trp-oxazolone, 0.45; in the data set with biotinyl-Val-oxazolone it was 0.795.

Regarding “AUUCACCUAGGCCAUCAGGUG [Fam2.2 aminoacylation ribozyme variant]”, the self-aminoacylation with biotinyl-Ile-oxazolone stood at 1.29; in the data set on biotinyl-Phe-oxazolone, 0.936; in the data set with biotinyl-Met-oxazolone, 1.37; with biotinyl-Leu-oxazolone, 1.2; with biotinyl-Trp-oxazolone, 0.695; with biotinyl-Val-oxazolone, 1.09.

As for “CUUCUUCAAACAAUUGGUCUG [Fam1A.1 aminoacylation ribozyme variant]”, the self-aminoacylation in the data set on biotinyl-Ile-oxazolone worked out at 1.04; in the data set on biotinyl-Phe-oxazolone, 1.14; with biotinyl-Met-oxazolone, 1.05; with biotinyl-Leu-oxazolone, 1.12; in the data set on biotinyl-Trp-oxazolone, 1.05; with biotinyl-Val-oxazolone, 0.921.

On to “CCACACUGCAAGCAAACGGUC [Fam1B.1 aminoacylation ribozyme variant]”, for which the self-aminoacylation was 0.962 in the data set on biotinyl-Ile-oxazolone; 1.03 in the data set on biotinyl-Phe-oxazolone; 0.997 in the data set on biotinyl-Met-oxazolone; 0.805 in the data set with biotinyl-Leu-oxazolone; 0.952 in the data set on biotinyl-Trp-oxazolone; 0.963 in the data set with biotinyl-Val-oxazolone.

On to “CUACUGCAAACAAUCGGUCGG [Fam1A.1 aminoacylation ribozyme variant]”, for which the self-aminoacylation with biotinyl-Ile-oxazolone was found to be 0.948; in the data set on biotinyl-Phe-oxazolone it was 0.692; in the data set on biotinyl-Met-oxazolone, 0.978; in the data set on biotinyl-Leu-oxazolone it was 0.919; in the data set with biotinyl-Trp-oxazolone, 0.862; with biotinyl-Val-oxazolone, 1.04.

Take “CCACGCUUCAAGCAAUCUGUC [Fam1B.1 aminoacylation ribozyme variant]”: the self-aminoacylation in the data set on biotinyl-Ile-oxazolone came to 0.357; in the data set on biotinyl-Phe-oxazolone, 0.793; with biotinyl-Met-oxazolone, 0.325; in the data set on biotinyl-Leu-oxazolone, 0.361; in the data set on biotinyl-Trp-oxazolone, 0.405; with biotinyl-Val-oxazolone, 0.443.

With “CCACACUUCAGGCAAUAGGUC [Fam1B.1 aminoacylation ribozyme variant]”, the self-aminoacylation in the data set on biotinyl-Ile-oxazolone was 0.624; with biotinyl-Phe-oxazolone it was 0.689; in the data set on biotinyl-Met-oxazolone, 0.605; in the data set on biotinyl-Leu-oxazolone, 0.606; with biotinyl-Trp-oxazolone it was 0.621; in the data set on biotinyl-Val-oxazolone it was 0.742.

For “CCACACUUCCAGCAAGCGGUC [Fam1B.1 aminoacylation ribozyme variant]”, the self-aminoacylation with biotinyl-Ile-oxazolone was determined as 1.3; in the data set on biotinyl-Phe-oxazolone, 1.19; in the data set with biotinyl-Met-oxazolone it was 1.03; in the data set with biotinyl-Leu-oxazolone it was 0.971; in the data set with biotinyl-Trp-oxazolone, 0.807; in the data set with biotinyl-Val-oxazolone, 1.37.

Turning to “AUUCACCUAGGACAUCCGGUG [Fam2.2 aminoacylation ribozyme variant]”, the self-aminoacylation in the data set with biotinyl-Ile-oxazolone worked out at 7.62; in the data set on biotinyl-Phe-oxazolone it was 31; in the data set on biotinyl-Met-oxazolone, 5.98; with biotinyl-Leu-oxazolone, 6; with biotinyl-Trp-oxazolone, 4.47; in the data set with biotinyl-Val-oxazolone, 6.22.

For “CUACACUUCAAGCAAUCGGUU [Fam1B.1 aminoacylation ribozyme variant]”, the self-aminoacylation in the data set with biotinyl-Ile-oxazolone amounted to 1.29; in the data set with biotinyl-Phe-oxazolone, 9.78; with biotinyl-Met-oxazolone, 1.47; with biotinyl-Leu-oxazolone it was 1.46; in the data set on biotinyl-Trp-oxazolone, 7.05; in the data set with biotinyl-Val-oxazolone, 1.27.

On to “AUUCACGUAGGUCAACGGGUG [Fam2.2 aminoacylation ribozyme variant]”, for which the self-aminoacylation with biotinyl-Ile-oxazolone stood at 2.77; in the data set on biotinyl-Phe-oxazolone it was 21.1; in the data set with biotinyl-Met-oxazolone, 3.95; in the data set on biotinyl-Leu-oxazolone, 4.96; with biotinyl-Trp-oxazolone it was 4.47; in the data set with biotinyl-Val-oxazolone it was 3.15.

On to “CCACAUUUCAAGCAAUGGGUC [Fam1B.1 aminoacylation ribozyme variant]”, for which the self-aminoacylation stood at 1.75 in the data set with biotinyl-Ile-oxazolone; 1.36 in the data set with biotinyl-Phe-oxazolone; 1.29 in the data set with biotinyl-Met-oxazolone; 1.68 in the data set with biotinyl-Leu-oxazolone; 1.16 in the data set on biotinyl-Trp-oxazolone; 1.48 in the data set with biotinyl-Val-oxazolone.

Consider “AUUAACCCGGUCAUCGAGUGA [Fam2.1 aminoacylation ribozyme variant]”, for which the self-aminoacylation was 3.71 with biotinyl-Ile-oxazolone; 54.5 in the data set with biotinyl-Phe-oxazolone; 7.21 with biotinyl-Met-oxazolone; 7.87 in the data set on biotinyl-Leu-oxazolone; 9.1 in the data set with biotinyl-Trp-oxazolone; 4.15 with biotinyl-Val-oxazolone.

The record behind these values is the supplement of paper PMC9233669.
